Laboratory results from PMC8206096.
Results are given in words; binding and its absence hold for the method and conditions named. In cells and extracts the contact can be indirect. Some binding calls cover weakened binding; strength is not graded here. For some of these results: Sequences can lack the tags named with a protein.

Amino acid sequences for entries named in this document (tags omitted).
UniProt Q02248: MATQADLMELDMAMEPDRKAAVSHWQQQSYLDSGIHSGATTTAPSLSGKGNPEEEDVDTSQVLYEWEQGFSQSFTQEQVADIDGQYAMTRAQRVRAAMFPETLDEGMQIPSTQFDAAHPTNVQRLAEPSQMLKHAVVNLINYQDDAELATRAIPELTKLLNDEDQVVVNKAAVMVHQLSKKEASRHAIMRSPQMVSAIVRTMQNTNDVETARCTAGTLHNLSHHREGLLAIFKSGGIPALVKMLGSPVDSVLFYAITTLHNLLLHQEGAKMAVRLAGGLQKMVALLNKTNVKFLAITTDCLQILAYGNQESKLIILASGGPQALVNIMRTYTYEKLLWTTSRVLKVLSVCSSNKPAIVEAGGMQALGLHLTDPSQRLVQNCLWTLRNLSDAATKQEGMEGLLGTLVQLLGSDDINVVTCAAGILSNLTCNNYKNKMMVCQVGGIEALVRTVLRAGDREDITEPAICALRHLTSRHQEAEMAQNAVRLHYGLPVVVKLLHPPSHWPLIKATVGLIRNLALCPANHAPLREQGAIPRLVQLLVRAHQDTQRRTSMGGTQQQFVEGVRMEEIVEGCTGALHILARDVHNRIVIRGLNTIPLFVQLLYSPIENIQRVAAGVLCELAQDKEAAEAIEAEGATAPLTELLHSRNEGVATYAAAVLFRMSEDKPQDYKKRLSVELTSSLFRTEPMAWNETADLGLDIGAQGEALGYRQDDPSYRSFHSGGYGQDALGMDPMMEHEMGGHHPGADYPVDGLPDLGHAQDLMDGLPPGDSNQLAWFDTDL

What was measured:
[1] = molecular target: T1, LIM and SH3 domain protein 1 (Lasp1) (mouse (endogenous in FLS)) (UniProt Q61792); assay: co-IP; Lasp1 antibody on protein G Dynabeads, lysates of wt FLS, overnight at 4 °C; immunoblot for Cadherin-11, p120-Catenin and β-Catenin; Lasp1−/− FLS as control
T1 sequence: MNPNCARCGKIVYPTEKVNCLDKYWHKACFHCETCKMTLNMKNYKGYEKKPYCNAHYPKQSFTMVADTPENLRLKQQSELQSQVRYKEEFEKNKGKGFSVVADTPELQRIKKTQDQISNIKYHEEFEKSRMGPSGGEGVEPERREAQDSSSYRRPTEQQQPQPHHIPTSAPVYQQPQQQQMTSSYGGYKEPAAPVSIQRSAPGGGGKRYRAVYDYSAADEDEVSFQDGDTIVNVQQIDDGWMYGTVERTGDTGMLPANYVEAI

[2] = molecular target: β-Catenin (mouse (endogenous in FLS and MEFs)) (UniProt Q02248); assay: co-IP; β-Catenin antibody on protein G Dynabeads, lysates of wt FLS, overnight at 4 °C; immunoblot for Lasp1, Cadherin-11, p120-Catenin and β-Catenin; Lasp1−/− FLS as control
[3] = molecular target: β-Catenin (mouse (endogenous in FLS and MEFs)) (UniProt Q02248); assay: co-IP; β-Catenin antibody on protein G Dynabeads, NP-40 lysates of Lasp1−/− MEFs transfected with GFP-tagged Lasp1 constructs (48 h); immunoblot with an anti-GFP antibody

Row | binding [2] | further results | Molecule
1 |  | binding [1]: binds | β-Catenin (from UniProt Q02248 1-781)
2 | binds |  | p120-Catenin (protein, UniProt P30999 1-938) MDDSEVESTASILASVKEQEAQFEKLTRALEEERRHVSAQLERVRVSPQDANSLMANGTLTRRHQNGRFVGDADLERQKFSDLKLNGPQDHNHLLYSTIPRMQEPGQIVETYTEEDPEGAMSVVSVETTDDGTTRRTETTVKKVVKTMTTRTVQPVPMGPDGLPVDASAVSNNYIQTLGRDFRKNGNGGPGPYVGQAGTATLPRNFHYPPDGYGRHYEDGYPGGSDNYGSLSRVTRIEERYRPSMEGYRAPSRQDVYGPQPQVRVGGSSVDLHRFHPEPYGLEDDQRSMGYDDLDYGMMSDYGTARRTGTPSDPRRRLRSYEDMIGEEVPPDQYYWAPLAQHERGSLASLDSLRKGMPPPSNWRQPELPEVIAMLGFRLDAVKSNAAAYLQHLCYRNDKVKTDVRKLKGIPILVGLLDHPKKEVHLGACGALKNISFGRDQDNKIAIKNCDGVPALVRLLRKARDMDLTEVITGTLWNLSSHDSIKMEIVDHALHALTDEVIIPHSGWEREPNEDCKPRHIEWESVLTNTAGCLRNVSSERSEARRKLRECDGLVDALIFIVQAEIGQKDSDSKLVENCVCLLRNLSYQVHREIPQAERYQEALPTVANSTGPHAASCFGAKKGKDEWFSRGKKPTEDPANDTVDFPKRTSPARGYELLFQPEVVRIYISLLKESKTPAILEASAGAIQNLCAGRWTYGRYIRSALRQEKALSAIAELLTSEHERVVKAASGALRNLAVDARNKELIGKHAIPNLVKNLPGGQQNSSWNFSEDTVVSILNTINEVIAENLEAAKKLRETQGIEKLVLINKSGNRSEKEVRAAALVLQTIWGYKELRKPLEKEGWKKSDFQVNLNNASRSQSSHSYDDSTLPLIDRNQKSDKKPDREEIPMSNMGSNTKSLDNNYSTLNERGDHNRTLDRSGDLGDMEPLKGAPLMQKI
3 | binds |  | LIM and SH3 domain protein 1 (Lasp1) (protein, UniProt Q61792 1-263) MNPNCARCGKIVYPTEKVNCLDKYWHKACFHCETCKMTLNMKNYKGYEKKPYCNAHYPKQSFTMVADTPENLRLKQQSELQSQVRYKEEFEKNKGKGFSVVADTPELQRIKKTQDQISNIKYHEEFEKSRMGPSGGEGVEPERREAQDSSSYRRPTEQQQPQPHHIPTSAPVYQQPQQQQMTSSYGGYKEPAAPVSIQRSAPGGGGKRYRAVYDYSAADEDEVSFQDGDTIVNVQQIDDGWMYGTVERTGDTGMLPANYVEAI
4 |  | binding [3]: binds | GFP-tagged Lasp1 full length (FL) construct (protein, UniProt Q61792 1-263) MNPNCARCGKIVYPTEKVNCLDKYWHKACFHCETCKMTLNMKNYKGYEKKPYCNAHYPKQSFTMVADTPENLRLKQQSELQSQVRYKEEFEKNKGKGFSVVADTPELQRIKKTQDQISNIKYHEEFEKSRMGPSGGEGVEPERREAQDSSSYRRPTEQQQPQPHHIPTSAPVYQQPQQQQMTSSYGGYKEPAAPVSIQRSAPGGGGKRYRAVYDYSAADEDEVSFQDGDTIVNVQQIDDGWMYGTVERTGDTGMLPANYVEAI
